The target of experiment [1] is T1, GST-MOC1 (rice (Oryza sativa L. spp. Japonica)) (UniProt Q84MM9).
T1 sequence: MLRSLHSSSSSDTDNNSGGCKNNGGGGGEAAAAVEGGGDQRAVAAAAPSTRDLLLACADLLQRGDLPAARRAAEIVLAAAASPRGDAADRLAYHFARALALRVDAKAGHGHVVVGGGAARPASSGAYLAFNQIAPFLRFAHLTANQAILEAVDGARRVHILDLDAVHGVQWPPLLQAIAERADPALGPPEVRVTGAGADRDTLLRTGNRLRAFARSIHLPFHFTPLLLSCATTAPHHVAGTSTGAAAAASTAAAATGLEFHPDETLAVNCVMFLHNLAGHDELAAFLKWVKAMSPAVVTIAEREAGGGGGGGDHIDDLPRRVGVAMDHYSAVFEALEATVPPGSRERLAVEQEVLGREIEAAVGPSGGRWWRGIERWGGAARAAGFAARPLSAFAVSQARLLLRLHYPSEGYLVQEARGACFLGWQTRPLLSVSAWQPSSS
Description: pull-down; 1 μg of GST-MOC1 or GST bound to glutathione beads, incubated with 1 mL of total proteins from SLR1-GFPOE calli in extraction buffer at 4 °C for 2 h, washed three times; anti-GFP immunoblot; only the target purified.

Experiment [2] has as its target T2, SLENDER RICE 1 (SLR1), full length, fused with GAL4 BD (rice (Oryza sativa L. spp. Japonica)) (UniProt Q7G7J6).
T2 sequence: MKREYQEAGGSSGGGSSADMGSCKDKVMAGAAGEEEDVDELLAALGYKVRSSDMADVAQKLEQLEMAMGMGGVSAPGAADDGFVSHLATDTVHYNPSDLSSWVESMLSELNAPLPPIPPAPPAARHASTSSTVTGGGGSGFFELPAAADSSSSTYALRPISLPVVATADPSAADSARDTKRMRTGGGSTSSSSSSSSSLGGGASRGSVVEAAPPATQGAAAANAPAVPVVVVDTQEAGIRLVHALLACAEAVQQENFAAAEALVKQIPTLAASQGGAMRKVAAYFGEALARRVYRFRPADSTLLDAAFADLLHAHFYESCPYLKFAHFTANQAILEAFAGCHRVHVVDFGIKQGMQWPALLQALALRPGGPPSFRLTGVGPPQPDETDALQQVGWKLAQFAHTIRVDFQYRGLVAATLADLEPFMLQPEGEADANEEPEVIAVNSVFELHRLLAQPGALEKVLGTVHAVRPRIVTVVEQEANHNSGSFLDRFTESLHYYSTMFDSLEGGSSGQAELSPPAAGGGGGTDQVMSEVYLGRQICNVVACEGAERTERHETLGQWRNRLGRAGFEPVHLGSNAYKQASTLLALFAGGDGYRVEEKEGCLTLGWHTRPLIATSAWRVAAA
Description: two-hybrid; SLR1 and its truncations fused with GAL4 BD (pGBKT7), MOC1 and its truncations fused with GAL4 AD (pGADT7); tested on SD/-Trp/-Leu/-His/-Ade/X-α-Gal medium.

Experiment [3] addresses T3, CC-SLR1 (rice (Oryza sativa L. spp. Japonica)) (UniProt Q7G7J6).
T3 sequence: T2 sequence
The experiment is described as follows: split reporter; BiFC with N- and C-terminal portions of enhanced CFP (pSCYNE, pSCYCE) in rice protoplasts, 14 h in the dark, confocal microscopy.

Experiment [4] concerns the target T4, SLR1-GFP (transient, rice protoplasts) (rice (Oryza sativa L. spp. Japonica)) (UniProt Q7G7J6).
T4 sequence: T2 sequence
Description: co-IP; MOC1-FLAG and SLR1-GFP transiently co-expressed in rice protoplasts, 14 h; extracts immunoprecipitated with anti-GFP, probed with anti-FLAG.

Results are given in words; binding and its absence hold for the method and conditions named. For some of these results: Binding seen in cells or lysates may run through a third protein. Some results given as binding are weak or reduced against the parent protein; the word gives no strength. For some of these results: Where a sequence is shown, tags or fusion partners need not be part of it.

B1: SLR1-GFP (from SLR1-GFPOE calli) (protein, UniProt Q7G7J6 1-625)
chain: T2 sequence
B1: in experiment [1], the binding result is reported as “binds”.

B2: MONOCULM 1 (MOC1), full length, fused with GAL4 AD (protein, UniProt Q84MM9 1-441)
chain: T1 sequence
As for B2, in experiment [2], the binding result is reported as “binds”.

B3: CN-MOC1 (protein, UniProt Q84MM9 1-441)
chain: T1 sequence
For B3, in experiment [3], the binding result is reported as “binds”.

B4: MOC1-FLAG (protein, UniProt Q84MM9 1-441)
chain: T1 sequence
B4: in experiment [4], the binding entry was “binds”.

Values taken from paper PMC6588547.
